These are yes or no findings as the source states them, for the method shown. Some results given as binding are weak or reduced against the parent protein; the word gives no strength. One block for each binder: values may come before it.
Target: Claudin 18.2 on CHO cells (CHO+ Claudin 18.2) (UniProt P56856)
Experiment: flow cytometry, unpurified supernatant on CHO+ Claudin 18.2 cells, PE-positive cells

By UniProt entry, the sequences of proteins in these tests, tags left out. Where a name states a change or a piece, a line headed by the entry shows the natural chain unless it says otherwise. Chains listed by the source or under a name are the forms on record and can include a tag or linker.
Claudin 18.2 on CHO cells (CHO+ Claudin 18.2) (P56856, form named): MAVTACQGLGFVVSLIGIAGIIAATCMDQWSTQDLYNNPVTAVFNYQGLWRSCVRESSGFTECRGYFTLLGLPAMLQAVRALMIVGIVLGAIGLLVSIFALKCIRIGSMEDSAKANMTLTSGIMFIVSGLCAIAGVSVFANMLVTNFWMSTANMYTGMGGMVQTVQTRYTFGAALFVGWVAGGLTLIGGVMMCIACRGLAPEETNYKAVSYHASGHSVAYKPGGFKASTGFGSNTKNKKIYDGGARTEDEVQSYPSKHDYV

binding: binds
B1: Claudin 18.2-3C2 (VHH)
VHH: QVQLVESGGGLVQPGGSLRLSCAASGFTFSNYAMYWVRQAPGKGPEWVSVISGGGGVISYADSVKGRFTISRDNAKNTMYLQMNSLKPEDTAVYYCNAQSAVWWENDYWGQGTQVTVSS

binding: binds
B2: Claudin 18.2-4G1 (VHH)
VHH: QVQLVESGGGVVQTGGSLRLTCEISGAALSSYTMGWFRQAPGKEREFVAAISWGGSITWYADSVKGRFTISRDNAKNTVYLQMNSLKPEDTAVYYCHAEGQFGALSYPKDYWGQGTQVTVSS
